Drawing on article doi:10.1101/701474, this text covers binding for 4 molecules.

Chains of the proteins cited; added tags and fusions are not shown.
UniProt P14635: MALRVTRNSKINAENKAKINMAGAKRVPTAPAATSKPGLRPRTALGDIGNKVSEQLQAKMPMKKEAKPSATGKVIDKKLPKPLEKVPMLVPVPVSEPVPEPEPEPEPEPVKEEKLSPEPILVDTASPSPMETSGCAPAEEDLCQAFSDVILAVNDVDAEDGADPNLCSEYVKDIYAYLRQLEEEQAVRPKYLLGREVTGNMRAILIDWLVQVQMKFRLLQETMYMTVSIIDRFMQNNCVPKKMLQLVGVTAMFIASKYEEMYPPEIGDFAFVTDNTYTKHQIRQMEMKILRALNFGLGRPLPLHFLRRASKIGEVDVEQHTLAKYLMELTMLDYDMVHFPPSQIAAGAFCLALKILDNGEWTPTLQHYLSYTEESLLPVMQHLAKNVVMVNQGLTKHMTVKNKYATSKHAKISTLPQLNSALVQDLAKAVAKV

No constants are given. Whether binding was seen depends on the method and setting. In cells and extracts the contact can be indirect. Some results given as binding are weak or reduced against the parent protein; the word gives no strength. For some of these results: Where a sequence is shown, tags or fusion partners need not be part of it.

Assay [1] concerns the target Cyclin B1 (human (endogenous in HeLa)) (UniProt P14635). As to the kind of experiment: co-IP.
In assay [2] the target is Cyclin B1 (RPE Cyclin B1-Venus+/-:Ruby-MAD2+/- cells) (human (endogenous in RPE1)) (UniProt P14635). The assay can be described thus: co-IP.

B1: MAD1-Flag (39-329aa), wild type (domain or fragment, UniProt Q9Y6D9 39-329)
chain: GSLQMQYQQSMQLEERAEQIRSKSHLIQVEREKMQMELSHKRARVELERAASTSARNYEREVDRNQELLTRIRQLQEREAGAEEKMQEQLERNRQCQQNLDAASKRLREKEDSLAQAGETINALKGRISELQWSVMDQEMRVKRLESEKQELQEQLDLQHKKCQEANQKIQELQASQEARADHEQQIKDLEQKLSLQEQDAAIVKNMKSELVRLPRLERELKQLREESAHLREMRETNGLLQEELEGLQRKLGRQEKMQETLVGLELENERLLAKLQSWERLDQTMGLSIR
For the molecule B1, the binding result in assay [1] is listed as “binds”.

B2: MAD1α (endogenous, HeLa) (protein, UniProt Q9Y6D9-1 1-718)
chain: MEDLGENTMVLSTLRSLNNFISQRVEGGSGLDISTSAPGSLQMQYQQSMQLEERAEQIRSKSHLIQVEREKMQMELSHKRARVELERAASTSARNYEREVDRNQELLTRIRQLQEREAGAEEKMQEQLERNRQCQQNLDAASKRLREKEDSLAQAGETINALKGRISELQWSVMDQEMRVKRLESEKQELQEQLDLQHKKCQEANQKIQELQASQEARADHEQQIKDLEQKLSLQEQDAAIVKNMKSELVRLPRLERELKQLREESAHLREMRETNGLLQEELEGLQRKLGRQEKMQETLVGLELENERLLAKLQSWERLDQTMGLSIRTPEDLSRFVVELQQRELALKDKNSAVTSSARGLEKARQQLQEELRQVSGQLLEERKKRETHEALARRLQKRVLLLTKERDGMRAILGSYDSELTPAEYSPQLTRRMREAEDMVQKVHSHSAEMEAQLSQALEELGGQKQRADMLEMELKMLKSQSSSAEQSFLFSREEADTLRLKVEELEGERSRLEEEKRMLEAQLERRALQGDYDQSRTKVLHMSLNPTSVARQRLREDHSQLQAECERLRGLLRAMERGGTVPADLEAAAASLPSSKEVAELKKQVESAELKNQRLKEVFQTKIQEFRKACYTLTGYQIDITTENQYRLTSLYAEHPGDCLIFKATSPSGSKMQLLETEFSHTVGELIEVHLRRQDSIPAFLSSLTLELFSRQTVA
For B2, the binding result in assay [1] is given as “binds”.

B3: MAD1α, Flag-epitope tagged (protein, UniProt Q9Y6D9-1 1-718)
chain: B2 chain
As to B3, the binding result in assay [1] is “binds”.

B4: MAD1 (endogenous, parental RPE1 cells) (protein, UniProt Q9Y6D9 1-718)
chain: B2 chain
Turning to B4, in assay [2], the binding result is listed as “binds”.
